We go through one substance from publication PMC6667501.

Results are given in words; binding and its absence hold for the method and conditions named. Binding seen in cells or lysates may run through a third protein. Tags and fused reporters may be left off the sequences shown.

The target in the assay is T1, HA-PIAS1-CTD (C-terminal domain, 345-650 aa of PIAS1) (UniProt O75925).
T1 sequence: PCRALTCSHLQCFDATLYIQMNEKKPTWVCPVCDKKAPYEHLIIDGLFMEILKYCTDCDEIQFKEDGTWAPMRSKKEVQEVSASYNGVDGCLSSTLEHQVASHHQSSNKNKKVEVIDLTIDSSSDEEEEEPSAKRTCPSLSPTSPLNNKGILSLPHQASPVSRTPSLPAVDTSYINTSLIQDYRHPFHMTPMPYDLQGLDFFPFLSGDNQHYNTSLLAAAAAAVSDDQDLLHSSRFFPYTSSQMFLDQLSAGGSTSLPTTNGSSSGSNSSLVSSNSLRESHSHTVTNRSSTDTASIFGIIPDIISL
Put plainly: co-IP; HeLa co-transfected with HA-PIAS1 (or HA-PIAS1-NTD/-CTD) and FLAG-tagged viral genes for 30 h; lysis buffer 50 mM Tris-HCl, 0.1% Triton-X-100, 150 mM NaCl, pH 7.8; precipitated with α-HA MAb and protein G agarose, blotted with α-FLAG.

As to “FLAG-tagged PRRSV nucleocapsid (N) protein, full-length wild type”, the binding entry was “no binding”.
